Data taken from PubChem BioAssay AID624297 (National Center for Advancing Translational Sciences (NCATS), 2012).
The campaign covered roughly 340,000 compounds. About 6,200 (1.8%) were called active. The inconclusive results got no clear call from the source; some entries with a clear call stand among them for comparison. Calls come from the whole dose curve; as a rule, active = well fitted activation curve with a large enough effect; inconclusive = small, poorly fitted or top-dose-only effect; inactive = no such curve, though single readings can be large or run the other way. Where the call is inconclusive, the potency comes from a doubtful curve fit.

assay: A quantitative high throughput screen for small molecules that induce DNA re-replication in SW480 colon adenocarcinoma cells.; note: nearly all actives have a fitted effect of over 55% in size; for re-replication activation: % of control where 0% means no effect; details: Hoechst DNA content imaging, 48 h; re-replication activation: at 46.1 µM (top of the series) unless noted
How it was run: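 Per well, 250 cells were exposed to pinned compound for 48 hr. Nuclear DNA was visualised with Hoechst (40 min, 37 C) and total object intensity recorded by fluorescence scanning.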
Potency is the fitted concentration of half-maximal effect.

SMILES	Potency	re-replication activation
COC(=O)c1ccc(OCC(=O)c2ccc(O)cc2O)cc1	inactive	
COc1cccc(NC(=O)Cc2csc(NC(=O)Nc3ccccc3OC)n2)c1	inconclusive: 0.291 µM [activator, partial curve, poor fit]	
COC(=O)c1scc(C)c1NC(=O)Cc1ccccc1	inactive	
CCNC(=O)n1nccc1C(C)Oc1ccc(Cl)cc1 (configuration not stated)	inactive	
COc1ccc(-c2nc(SCC(=O)NC3CCCCC3)n[nH]2)cc1	active: 16.4 µM	
CCc1cc2c3c(c(=O)oc2cc1O)CCCC3	inconclusive: 20.6 µM [activator, partial curve, poor fit]	
CCOC(=O)c1ccc(NC(=O)c2ccc(CN3CCc4ccccc4C3)cc2)cc1	inactive	
CCOc1ccc2nc(NC(=O)c3ccc(S(=O)(=O)N4CCOCC4)cc3)sc2c1	inactive	
Cc1cccc(CCNS(=O)(=O)c2ccc(S(=O)(=O)N3CCCCC3)cc2)c1	inactive	
CCOC(=O)c1c2c(n(Cc3ccccc3)c1C)C(=O)C(=O)c1ccccc1-2	active: 4.11 µM	
Cc1cc(=O)oc2cc(NC(=S)NCc3ccccn3)ccc12	inconclusive: 5.8 µM [activator, full curve, poor fit]	
CC(C)c1ccc(CNC(=O)C(=O)NCC2CCCO2)cc1 (configuration not stated)	inconclusive: 23.1 µM [activator, single point]	
Nn1cnnc1N/N=C/c1cc([N+](=O)[O-])c(Cl)cc1Cl	inconclusive: 18.4 µM [activator, single point]	
CN(CC(O)CON=C1c2ccccc2-c2ccccc21)S(=O)(=O)c1ccc(Br)cc1 (configuration not stated)	inconclusive: 18.4 µM [activator, single point]	
Nc1ccc(S(=O)(=O)Nc2nccc(/C=C/c3ccc(Br)s3)n2)cc1	inconclusive: 32.6 µM [activator, partial curve, poor fit]	
CCOC(=O)c1[nH]c(=O)[nH]c1CN(Cc1ccco1)Cc1[nH]c(=O)[nH]c1C(=O)OCC	inconclusive: 3.26 µM [activator, partial curve, poor fit]	
O=[N+]([O-])c1cccc(C(=S)N2CCN(c3ccccc3F)CC2)c1	inconclusive: 3.26 µM [activator, single point]	
Cc1ccc(C(=O)Nn2c(N)c(S(=O)(=O)c3ccc(C)cc3)c3nc4ccccc4nc32)cc1	inconclusive: 29.1 µM [activator, partial curve, poor fit]	
COc1cc(NC(=O)CNc2cccc(S(=O)(=O)N3CCOCC3)c2)cc(OC)c1	inactive	
CC(=O)c1cccc(NC(=O)CNC(=O)c2sc3ccccc3c2Cl)c1	inconclusive: 31.6 µM [activator, single point]	
CSc1nc(N2CCOCC2)c2c(c1C#N)CC(C(C)C)OC2 (configuration not stated)	inconclusive: 16.4 µM [activator, single point]	
Cc1cc(/C=N/NC(=O)c2cc3ccccc3o2)c(C)n1C	inactive	
C=C1CCC(N(O)c2cc(C)on2)C(=C)CCC2C1CC2(C)C (configuration not stated)	inconclusive: 18.4 µM [activator, partial curve, poor fit]	
COC(=O)C[C@H]1c2cc(F)cc(F)c2S(=O)(=O)N1C1CCN(Cc2ccccc2)CC1		inactive: -3.66% [at 9.22 µM]

SMILES	Potency	re-replication activation
COc1ccc(NC(=O)CCNC(=O)c2ccccc2)cc1S(N)(=O)=O	inconclusive: 9.2 µM [activator, single point]	
CC(=O)c1cccc(NC(=O)CN(C)S(=O)(=O)c2cccc3nsnc23)c1	inactive	
CCC(C)[C@@H](NC(=O)OC(C)(C)C)c1nnc(S(=O)(=O)Cc2cccc(C)c2)o1 (some centres not stated)	inconclusive: 4.61 µM [activator, full curve, poor fit]	
Cc1ccc(S(=O)(=O)N2CCC(=O)N(CCOCc3ccc(C(F)(F)F)cc3)CC2)cc1	inactive	
O=C(c1ccoc1)N1CCC(CO)(CCc2ccccc2)CC1		inactive: 9.94% [at 1.84 µM]
CCC(=O)NC(=S)Nc1cccc(Cl)c1N1CCCCC1	active: 11.2 µM	
CCOc1ccc(C(=O)NC2CCN(C(=S)NCc3ccco3)CC2)cc1	inconclusive: 0.0259 µM [activator, full curve, poor fit]	
Cn1ncc(S(=O)(=O)Cc2ccccc2)c(Cl)c1=O	inactive	
O=C(Nc1ccc(Cl)cc1)N1CCOC12CCC1(CC2)OCCO1	inactive	
CCc1ccc(-c2cc(C)no2)cc1S(=O)(=O)NCCc1ccc(OC)c(OC)c1	inactive	
O=C(O)CCCCCCCCCCCNC(=O)NC12CC3CC(CC(C3)C1)C2	inconclusive: 6.51 µM [activator, single point]	
COc1ccc(/C(C)=N/NC(=S)Nc2cc(C)ccc2C)cc1	inconclusive: 16.4 µM [activator, partial curve, poor fit]	
COc1ccc2cc(CN(CC3CCCO3)S(=O)(=O)c3ccccc3Cl)c(=O)[nH]c2c1 (configuration not stated)	inconclusive: 29.1 µM [activator, partial curve, poor fit]	
Cc1cccc(N2C(=O)c3cccc4c(N(C)CCO)ccc(c34)C2=O)c1	inconclusive: 16.4 µM [activator, single point]	
Cc1csc(NC(=O)c2ccco2)c1C(=O)c1ccccc1	inconclusive: 3.26 µM [activator, partial curve, poor fit]	
NS(=O)(=O)c1ccc(CCNC(=O)c2ccccc2-c2ccccc2)cc1		inconclusive: 60.9% [activator]
O=S(=O)(NCC1CCCO1)c1ccc(Cl)cc1 (configuration not stated)	inactive	
CC(C)n1c(N2CCN(S(=O)(=O)c3cccc([N+](=O)[O-])c3)CC2)nc2ccccc21	inactive	
Cc1cccc(CN2CCc3c(OCC(=O)NCc4ccco4)cccc3C2=O)c1	inactive	
NC(N)=Nc1nc(C2COc3ccccc3O2)cs1 (configuration not stated)	inconclusive: 29.1 µM [activator, single point]	
COc1ccc(-n2nnnc2/C=C\Nc2ccccc2C(=O)c2ccccc2)cc1	active: 10.3 µM	
Oc1ccccc1N=Nc1nc(-c2ccccc2)c(-c2ccccc2)[nH]1	inconclusive: 0.82 µM [activator, full curve]	
O=C(NCc1ccco1)c1cccc2c1C(=O)c1ccc(/C=C/c3ccccc3)cc1S2(=O)=O	inconclusive: 20.6 µM [activator, single point]	
CCOC(=O)C1=C(C)N(CCCC(=O)O)C(=O)NC1c1ccc(Cl)cc1 (configuration not stated)	inactive	

SMILES	Potency	re-replication activation
CSc1ccccc1OCc1cc(C(=O)N(C)Cc2ccc3nsnc3c2)no1	inconclusive: 18.4 µM [activator, single point]	
CC1(C)N=C(SCC(=O)Nc2ccc(Cl)cc2)C(c2ccc(Cl)cc2)=N1	inconclusive: 25.9 µM [activator, single point]	
O=C(NCc1cccnc1)c1cc(Sc2cccc(Cl)c2)nc2ccccc12	inactive	
Cn1c(=O)c2c(nc(CN3CCN(c4ccccc4)CC3)n2Cc2c(F)cccc2Cl)n(C)c1=O	inactive	
CCC(=O)n1nc(NCc2ccc(OC)c(OC)c2)nc1NCc1ccc(OC)c(OC)c1	inactive	
c1ccc2c(N3CCCCC3)nc(N3CCCCC3)nc2c1	inactive	
CC(=O)Oc1ccc2cc(-c3cccnc3)c(=O)oc2c1	inconclusive: 6.51 µM [activator, single point]	
COc1cc2ncnc(Nc3ccc4c(c3)OCO4)c2cc1OC	inactive	
CCOc1ccccc1N1C(=O)CN(Cc2ccc(OC)c(OC)c2)C1=S	inconclusive: 0.58 µM [activator, full curve, poor fit]	
Cn1c(-c2ccccc2)c(C#Cc2ccc(N)cc2)c2ccccc21	active: 9.2 µM	
CC(C)CCNC(=O)C1CC2Cn3c(nc4cc(Cl)c(Cl)cc43)C2N1C (configuration not stated)		inactive: -15.7% [at 9.22 µM]
O=C(COC(=O)C1CC2CCCC(C1)C2=O)NNC(=O)c1ccccc1F (configuration not stated)	inactive	
O=S(=O)(c1ccc(Cl)cc1)N(CCCN1CCOCC1)Cc1cccs1	inactive	
OC1(C#CCN2CCOCC2)CCCCC1	inconclusive: 5.17 µM [activator, single point]	
CCCOc1ccc(NC(=O)OC2CCN(C)CC2)cc1	inconclusive: 0.291 µM [activator, full curve, poor fit]	
Cn1cc([N+](=O)[O-])c(C(=O)N/N=C\c2c[nH]c3ccccc23)n1	inconclusive: 16.4 µM [activator, partial curve, poor fit]	
O=C(N=Nc1c(O)[nH]c2ccc(Cl)cc12)c1cc(-c2cccs2)nc2ccccc12	inconclusive: 3.66 µM [activator, partial curve, poor fit]	
COc1cccc(-n2nnnc2S(C)(=O)=O)c1	inconclusive: 2.59 µM [activator, full curve]	
CCCCn1c(N)c(-c2nc3ccccc3s2)c2c([N+](=O)[O-])nn(C)c(=O)c21	inactive	
Cc1ccc(-c2nnn3c2nc(NCCc2ccc(S(N)(=O)=O)cc2)c2ccccc23)cc1	inconclusive: 2.31 µM [activator, partial curve, poor fit]	
O=S(=O)(c1ccc(NC(=S)NCCC(c2ccccc2)c2ccccc2)cc1)N1CCOCC1	inconclusive: 20.6 µM [activator, partial curve]	
CCOc1ccc(NC(=O)CCN2CCN(c3ccccc3F)CC2)cc1	active: 18.4 µM	
COc1ccc(Cl)cc1NC(=O)CN(C)C(=O)c1cn2ccccc2n1	active: 13 µM	
O=C1CSC(c2cccnc2)N1c1ccccc1 (configuration not stated)	inconclusive: 0.231 µM [activator, full curve, poor fit]	

Shown in CSV form: 4 of the compounds above.
SMILES,Potency,re-replication activation
O=C(N=Nc1c(O)[nH]c2ccc(Cl)cc12)c1cc(-c2cccs2)nc2ccccc12,"inconclusive: 3.66 µM [activator, partial curve, poor fit]",
COc1cccc(-n2nnnc2S(C)(=O)=O)c1,"inconclusive: 2.59 µM [activator, full curve]",
CCCCn1c(N)c(-c2nc3ccccc3s2)c2c([N+](=O)[O-])nn(C)c(=O)c21,inactive,
Cc1ccc(-c2nnn3c2nc(NCCc2ccc(S(N)(=O)=O)cc2)c2ccccc23)cc1,"inconclusive: 2.31 µM [activator, partial curve, poor fit]",
